{
  "sequences": {"note": "By UniProt entry, the sequences of proteins in these tests, tags left out.", "UniProt P31941": "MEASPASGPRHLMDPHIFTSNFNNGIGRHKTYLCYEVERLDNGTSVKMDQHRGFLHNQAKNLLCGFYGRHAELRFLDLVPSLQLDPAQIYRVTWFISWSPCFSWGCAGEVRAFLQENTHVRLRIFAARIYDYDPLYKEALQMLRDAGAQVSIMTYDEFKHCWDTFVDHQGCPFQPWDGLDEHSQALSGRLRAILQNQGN"},
  "source": "paper PMC3178557",
  "target": "T1, Flag-tagged HIV-2ROD Vpx (HIV-2ROD) (UniProt P06939)",
  "T1 sequence": "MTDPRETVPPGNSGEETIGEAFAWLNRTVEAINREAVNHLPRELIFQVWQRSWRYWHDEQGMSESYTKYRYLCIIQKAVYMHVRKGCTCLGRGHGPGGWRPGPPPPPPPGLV",
  "assay": "co-IP; HEK293T co-transfected 1:1 with Flag-tagged Vpx/Vpr and HA-tagged A3A; lysed in 150 mM NaCl buffer, anti-Flag antibody-coated beads 3 hours at +4°C, washed thrice with 400 mM NaCl buffer; WB",
  "note": "No constants are given. Whether binding was seen depends on the method and setting. In cells and extracts the contact can be indirect. Some entries that bind do so weakly or less than the wild type. Where a sequence is shown, tags or fusion partners need not be part of it.",
  "data": [
    {"substance": "HA-tagged APOBEC3A (from UniProt P31941 1-199)", "values": [
      {"measurement": "binding", "result": "binds"}
    ]}
  ]
}
